According to PubChem BioAssay AID1117319 (Southern Research Institute, 2015):
Out of some 260,000 compounds screened, about 1,500 (0.58%) were called active. The shares of active, inactive and inconclusive entries below differ from those in the screen.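 How the source made its calls: active means inhibition above a set limit at one or more doses, reproduced on every date tested; inconclusive means results disagree between test dates, or hit never tested in dose response; inactive means the rest.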

Sequences of proteins named here, by UniProt entry; tags and fusion partners are left off. A change or cut given only in a name is not applied to a line headed by its entry.
UniProt P69720: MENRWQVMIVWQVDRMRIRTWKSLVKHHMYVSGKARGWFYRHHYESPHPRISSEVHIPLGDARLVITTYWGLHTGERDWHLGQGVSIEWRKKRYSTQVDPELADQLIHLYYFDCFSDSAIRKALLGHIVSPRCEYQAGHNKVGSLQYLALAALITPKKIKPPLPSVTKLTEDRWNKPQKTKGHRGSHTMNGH
UniProt P69721: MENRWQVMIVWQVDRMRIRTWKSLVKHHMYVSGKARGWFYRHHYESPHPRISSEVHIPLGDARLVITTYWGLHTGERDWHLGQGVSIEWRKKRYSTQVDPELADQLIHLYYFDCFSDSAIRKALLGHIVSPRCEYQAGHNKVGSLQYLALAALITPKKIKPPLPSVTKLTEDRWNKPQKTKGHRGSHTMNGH
UniProt P69722: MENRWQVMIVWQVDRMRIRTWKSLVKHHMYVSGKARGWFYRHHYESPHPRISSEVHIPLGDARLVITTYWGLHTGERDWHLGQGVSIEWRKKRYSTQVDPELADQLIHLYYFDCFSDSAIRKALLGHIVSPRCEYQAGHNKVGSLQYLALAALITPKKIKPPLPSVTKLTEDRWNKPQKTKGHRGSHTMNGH
UniProt P69723: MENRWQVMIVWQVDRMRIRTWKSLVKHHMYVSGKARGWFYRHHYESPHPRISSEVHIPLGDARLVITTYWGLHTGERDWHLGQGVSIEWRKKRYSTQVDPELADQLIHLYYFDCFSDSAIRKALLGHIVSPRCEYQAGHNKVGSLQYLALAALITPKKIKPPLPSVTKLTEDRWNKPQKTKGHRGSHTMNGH
UniProt Q9HC16: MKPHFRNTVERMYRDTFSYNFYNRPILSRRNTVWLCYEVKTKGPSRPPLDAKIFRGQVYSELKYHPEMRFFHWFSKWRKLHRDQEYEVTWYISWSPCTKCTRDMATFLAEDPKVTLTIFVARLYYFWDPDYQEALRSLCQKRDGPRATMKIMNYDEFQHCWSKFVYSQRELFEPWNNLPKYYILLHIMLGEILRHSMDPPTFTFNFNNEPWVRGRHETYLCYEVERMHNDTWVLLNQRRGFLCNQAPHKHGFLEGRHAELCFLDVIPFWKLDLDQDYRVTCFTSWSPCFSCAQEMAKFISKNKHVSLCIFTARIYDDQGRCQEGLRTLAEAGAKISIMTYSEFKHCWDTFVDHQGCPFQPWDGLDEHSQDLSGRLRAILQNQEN

Target: Virion infectivity factor (Human immunodeficiency virus type 1 group M subtype B (isolate BH10)) + Virion infectivity factor (Human immunodeficiency virus type 1 group M subtype B (isolate BRU/LAI)) + Virion infectivity factor (Human immunodeficiency virus type 1 group M subtype B (isolate PCV12)) + Virion infectivity factor (Human immunodeficiency virus type 1 group M subtype B (isolate HXB2)) + DNA dC->dU-editing enzyme APOBEC-3G (Homo sapiens) (UniProt P69720+P69721+P69722+P69723+Q9HC16)
Assay: inhibitors of Vif binding to APOBEC3G peptide, primary screen, biochemical, TR-FRET, GST-Vif 1-94, biotin-A3G peptide, dose response retest (AID 1117319);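 further: Vif residues 1-94 fused to GST binding biotinylated APOBEC3G peptide 110-148; 0% = full assay without inhibitor and 100% = GST in place of GST-Vif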
Conditions: hits give high values

Row | Structure (SMILES) | inhibition
1 | CC(C)C(C(=O)NCc1ccco1)N(C(=O)CNS(=O)(=O)c1ccc(Cl)cc1)C1CCCC1 (configuration not stated) | inconclusive: 60.5%
2 | CCOc1ccc(N(C)S(=O)(=O)c2ccc3[nH]cc(C(=O)NCCOC)c(=O)c3c2)cc1 | inactive: 0.42%
3 | CC(OC(=O)c1ccc(Cl)nc1)C(=O)NC(C)(C)C (configuration not stated) | inconclusive: 50.8%
4 | CN(C)c1ccc(/C=C2\NC(=S)N(Cc3ccccc3)C2=O)cc1 | inconclusive: 33.2%
5 | O=C1/C(=C/c2cccc(Br)c2)SC(=S)N1/N=C/c1cc([N+](=O)[O-])ccc1O | inconclusive: 33.9%
6 | Cc1ccc(O)c(NC(=O)CCCC(=O)O)c1 | inconclusive: 44.2%
7 | COc1ccc(C2C(C(=O)N3CCCC3)c3cc(OC)c(OC)cc3C(=O)N2C)cc1 (configuration not stated) | inconclusive: 47%
8 | CSc1nnc2c3c4c(sc3c(=O)n(-c3ccccc3)n12)CC(C)(C)OC4 | inconclusive: 36.4%
9 | O=C1NC(Cc2ccccc2)c2nc3ccccc3c(=O)n2-c2cc3ccccc3cc21 (configuration not stated) | inactive: 0.54%
10 | O=C(NC1CCCC1)C(c1ccc(Cl)cc1)N1CCc2ccccc21 (configuration not stated) | inactive: 2.15%
11 | CCc1ccccc1NC(=S)NC1CC2CCCC(C1)N2Cc1cccs1 (configuration not stated) | inconclusive: 33.6%
12 | COCCN1CC(=O)N(c2cccc(C)c2C)C(c2ccc(Cl)cc2)C1=O (configuration not stated) | inconclusive: 59.3%
13 | Cc1ccc(NC(=O)COc2ccccc2C(=O)NCCN(C)C)cc1 | inconclusive: 35%
14 | CS(=O)(=O)N(CCC#N)Cc1ccc(/C=C2\C(=O)Nc3ccccc32)o1 | inactive: -11%
15 | COc1cc(NS(=O)(=O)c2ccccc2)ccc1-n1nc(C)cc1C | inconclusive: 37.3%
16 | CN(CCC#N)C(=O)COC(=O)c1ccccc1OCc1ccccc1Cl | inactive: 23.6%
17 | CCn1c(SCC(=O)c2cc(OC)ccc2OC)nnc1C(C)C | inconclusive: 36%
18 | COc1ccc(-c2[nH]c(-c3ccc(SC)cc3)nc2SCC(=O)Nc2nccs2)cc1 | inconclusive: 38.4%
19 | O=C(CCSCCC(=O)Nc1c(F)c(F)c(F)c(F)c1F)Nc1c(F)c(F)c(F)c(F)c1F | inactive: -9.21%
20 | CC(=O)N1C(=S)NC(=O)/C1=C1/C(=O)N(CC(=O)Nc2cccc(C)c2)c2ccccc21 | inconclusive: 52.1%
21 | CC(COc1ccccc1)N(CCCl)Cc1ccccc1 (configuration not stated) | inconclusive: 48.3%
22 | O=C(CN1C(=O)NC2(CCCCCCC2)C1=O)N1CCN(C(=O)c2ccco2)CC1 | inconclusive: 62.6%

Row | Structure (SMILES) | inhibition
23 | COc1ccc(CN(CCN(C)C)c2ccccn2)cc1 | inconclusive: 39.3%
24 | Nc1ccc(N2CCN(C(=O)c3cccs3)CC2)cc1 | inconclusive: 45.5%
25 | Clc1cc(Br)ccc1OCCCn1ccnc1 | inconclusive: 37.3%
26 | O=C(Nc1nnc(/N=C/c2ccco2)s1)c1ccc(F)cc1 | inconclusive: 33.7%
27 | CC1=C(C#N)C(=O)NC(=O)/C1=C/c1ccc(-c2ccc(S(N)(=O)=O)cc2)o1 | inconclusive: 56.6%
28 | Cc1c(-c2ccco2)[n+](=O)c2c(n1[O-])CCC2 | inconclusive: 34.2%
29 | CC(=O)NC(c1cccs1)c1cc([N+](=O)[O-])c2cccnc2c1O (configuration not stated) | inconclusive: 48.5%
30 | FC(F)(F)c1ccc(Cl)c(N/N=C/c2ccc(N3CCOCC3)s2)c1 | inconclusive: 53.6%
31 | COc1ccc(Nc2nc(-c3ccc(OC)cc3)cs2)cc1 | inconclusive: 49.4%
32 | O=C(CSc1nnc(-c2cccnc2)n1Cc1ccccc1)N1CCOCC1 | inconclusive: 52.5%
33 | CC1(C)OC(=O)C(=Cc2ccc(-c3ccc(Cl)c(C(=O)O)c3)o2)C(=O)O1 | inconclusive: 36%
34 | CSc1ccc(/C=C(\C(=O)O)c2ccc(S(=O)(=O)N3CCCC3)s2)cc1 | inconclusive: 36%
35 | CC12C=CC3(O1)C(C(=O)N(c1cccnc1)C3C(=O)NC1CCCCC1)C2C(=O)Nc1ccccc1 (configuration not stated) | inconclusive: 37.8%
36 | O=C(CN(C(=O)CSc1nnc(COc2ccccc2)o1)c1ccc(F)cc1)NC1CCCC1 | inconclusive: 24%
37 | CC(C)NCc1c(O)c(Br)cc2oc3c(c12)CCCC3 | inconclusive: 36.4%
38 | C=CCn1c(SCc2cccc(C#N)c2)nnc1-c1ccccc1O | inconclusive: 35.5%
39 | O=C(Cc1ccc(Br)cc1)N1CCCCCC1 | inconclusive: 43.7%
40 | COc1ccc(OC)c(CC(NC(C)=O)C(=O)NC2CCN(c3nnnn3-c3ccccc3)CC2)c1 (configuration not stated) | inconclusive: 33.1%
41 | Cc1nnc(C)c2c(C)n(-c3ccc(Br)cc3)c(C)c12 | inconclusive: 39.3%
42 | CC(=O)NC(Cc1cccc(C)c1)C(=O)NC1CCN(C(=O)c2ccc([N+](=O)[O-])cc2)CC1 (configuration not stated) | inconclusive: 46.8%
43 | C/C(Cc1ccccc1)=N\NC(=O)CNC(=O)/C=C\c1ccccc1 | inconclusive: 43.9%
44 | c1cncc(-c2noc(-c3cccc4ccccc34)n2)c1 | inconclusive: 34.7%

Looked up one by one from above, 3 records:
Row | Structure (SMILES) | inhibition
35 | CC12C=CC3(O1)C(C(=O)N(c1cccnc1)C3C(=O)NC1CCCCC1)C2C(=O)Nc1ccccc1 (configuration not stated) | inconclusive: 37.8%
20 | CC(=O)N1C(=S)NC(=O)/C1=C1/C(=O)N(CC(=O)Nc2cccc(C)c2)c2ccccc21 | inconclusive: 52.1%
30 | FC(F)(F)c1ccc(Cl)c(N/N=C/c2ccc(N3CCOCC3)s2)c1 | inconclusive: 53.6%

Further compounds.

Row | Structure (SMILES) | inhibition
45 | COCCNC(=O)CN(C(=O)Cn1nnc2ccccc21)c1ccccc1C | inconclusive: 33.1%
46 | CC(=O)Nc1ccc(NC(=O)CCC(=O)NCCO)cc1 | inconclusive: 23.3%
47 | O=C(CSc1cccc2cccnc12)Nc1cccc(S(=O)(=O)N2CCOCC2)c1 | inconclusive: 56.8%
48 | O=C(Cn1c(=O)oc2cc(S(=O)(=O)N3CCCC3)ccc21)NCc1ccccn1 | inconclusive: 34.2%
49 | CCOC(=O)C1CCN(C(=O)Nc2ccccc2Cl)CC1 | inconclusive: 36.1%
50 | O=[N+]([O-])c1ccc(/C=N/Nc2nc(N3CCCCC3)nc(N3CCCCC3)n2)o1 | inconclusive: 33.8%
51 | CN(C)c1ccnc2sc3c(=O)n(-c4ccccc4)cnc3c12 | inconclusive: 53%
52 | Clc1cccc(Nc2nc(-c3cccnc3)cs2)c1 | inconclusive: 40.6%
53 | O=C(O)c1cccc(S(=O)(=O)Nc2cccc(S(=O)(=O)N3CCCCCC3)c2)c1 | inactive: 4%
54 | CC(C)(C)C(=O)C(Cc1ccccc1Cl)n1cncn1 (configuration not stated) | inconclusive: 35.1%
55 | CCOC(=O)c1c(C)[nH]c(C(=O)OCC(=O)NC2CCS(=O)(=O)C2)c1C (configuration not stated) | inconclusive: 36.5%
56 | CCOC(=O)COc1ccc2nsnc2c1 | inconclusive: 35.6%
57 | Cc1cccc(NC(=S)NC(=O)/C=C/c2ccco2)n1 | inconclusive: 39.7%
58 | CN(C(=O)c1ccco1)c1nnc(C23CC4CC(CC(C4)C2)C3)s1 | inconclusive: 47.6%
59 | COC(=O)c1ccc(COc2ccccc2/C=C(\C#N)C(=O)Nc2ccc(C)cc2C)cc1 | inconclusive: 44.7%
60 | NS(=O)(=O)c1ccc(NC(=S)NC2CC2)cc1 | inconclusive: 56.9%
61 | COCc1cc(C)nc(SCC(=O)Nc2cc3c(cc2C#N)OCO3)c1C#N | inconclusive: 10.6%
62 | Cc1cc(N2C(=O)C(O)=C(C(=O)c3cccs3)C2c2cccc(Br)c2)no1 (configuration not stated) | inconclusive: 35%
63 | CC1(C)Cc2cccc(OCC(=O)OCc3nnc(-c4ccccc4)o3)c2O1 | inactive: -2.78%
64 | CC(=O)c1ccc(NC(=O)c2ccc(-n3cnnn3)cc2)cc1 | inactive: -12.9%
65 | Cc1nnc(-c2cnn(-c3ccccc3)c2N)n1Cc1ccc(F)cc1 | inconclusive: 33.5%
66 | Cc1cc(NC(=O)CN2CCN(c3ccc(O)cc3)CC2)no1 | inconclusive: 50.4%

Row | Structure (SMILES) | inhibition
67 | N#C/C(=C\c1ccc(N2CCOCC2)o1)c1nc2ccccc2[nH]1 | inconclusive: 52%
68 | CC(C)CCNC(=O)c1cccnc1Sc1ccccc1 | inactive: -0.39%
69 | COc1cc2c(cc1NC(=O)/C=C/c1ccc([N+](=O)[O-])cc1)oc1ccccc12 | inconclusive: 33%
70 | O=C(O)c1cccc(-n2cccc2/C=C2\SC(=O)N(Cc3ccccc3F)C2=O)c1 | inconclusive: 41.8%
71 | CC(C)C1=Nc2cccc3cccc(c23)N1 | inactive: -3.35%
72 | Cc1cc(C)nc(N2CCCC(C(=O)Nc3ccc4c(c3)OCCO4)C2)n1 (configuration not stated) | inconclusive: 47%
73 | CCN(CC)CCCN=Cc1c(O)n(-c2ccc(C)cc2)c(=O)c2ccccc12 | inconclusive: 43.1%
74 | COC(=O)[C@H](C)[C@H]1C[C@]1(C)[C@H](NC(=O)OCc1ccccc1)c1ccccc1 | inconclusive: 46.3%
75 | O=C(O)c1ccc(COc2ccc3c4c(c(=O)oc3c2)CCC4)o1 | inconclusive: 34.8%
76 | COc1ccc(-n2nnnc2-c2cnc3cc4c(cc3c2C)OCO4)cc1 | inactive: 2.05%
77 | CS(=O)(=O)N(CC(=O)Nc1ccccc1C(=O)N1CCOCC1)c1ccccc1 | inconclusive: 34.1%
78 | Cc1ccc(S(=O)(=O)NCc2ccccn2)c(C)c1C | inconclusive: 44.5%
79 | CC(C)NC(=O)NC(=O)COC(=O)c1ccccc1Oc1ccccc1 | inconclusive: 42.9%
80 | COc1ccc(C(=S)N2CCCCCC2)cc1 | inconclusive: 59.3%
81 | COC(=O)CS(=O)(=O)c1cccc2cccnc12 | inconclusive: 48.7%
82 | CC(C)(C)n1nnnc1C(c1cc2cc3c(cc2[nH]c1=O)OCO3)N1CCN(c2ccccc2)CC1 (configuration not stated) | inconclusive: 51.5%
83 | CN(C[C@H](Cc1ccccc1)N(C[C@@H](Cc1cccc2ccccc12)N(CCc1ccccc1)N=O)N=O)N=O | inconclusive: 58.7%
84 | C=CS(=O)c1sc(Cl)c(N2CCOCC2)c1[N+](=O)[O-] (configuration not stated) | inconclusive: 33.6%
85 | O=C(O)CCC(=O)c1ccc2ccc3cccc4ccc1c2c34 | inconclusive: 58.4%
86 | CCOc1cc(/C=N/n2nnnc2N)ccc1OCc1c(C)no[n+]1[O-] | inconclusive: 43.1%
87 | COc1ccc(C2NC3=C(CCCC3)C(C#N)(C#N)C2(C#N)C#N)cc1 (configuration not stated) | inconclusive: 34.4%
